# The list shows a part of the results. Further columns of the screen follow, without active or inactive calls. The list favours compounds with an active or inconclusive main result. Words in brackets tell the shape of the fitted curve; partial curves, single points and poor fits give uncertain potencies.
# Assay: IkB Signaling
# Settings: ABC-DLBCL IkBa-CBG/CBR dual luciferase ratio (green luciferase fused to IkBa over red control in OCI-Ly3 lymphoma cells), 4 h
# In short: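 Luminescence ratio of IκBα-fused green versus native red beetle luciferase in OCI-Ly3 cells, 4 h post-doxycycline with compound; red signal alone, scaled from basal (0%) to zero light (-100%), flagged nonspecific or cytotoxic effects.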
# [1] = measured here: control luc red channel unless noted
compound,measurement,setting,value
Cc1c(NC(=O)c2noc3c2CCc2ccccc2-3)c(=O)n(-c2ccccc2)n1C,AC50,[1],"12.6 µM [falling, partial curve]"
CCOc1ccc(CCNC(=O)c2cccc(-n3c(C)nc4cccnc43)c2C)cc1,AC50,[1],"15.8 µM [falling, partial curve]"
C=CCNc1nc(NCc2ccco2)nc(OCC)n1,AC50,[1],"3.16 µM [rising, single point] [measured here: IkB-luc green channel]"
CCOC(=O)C1CCCN(C(=O)c2cc3nc(-c4cccc(OC)c4)cc(C(F)(F)F)n3n2)C1 (centres undefined),AC50,[1],"2 µM [falling, full curve, poor fit]"
CCc1cccc(C)c1NC(=O)C1CCN(S(=O)(=O)c2cccc3nonc23)CC1,AC50,[1],"1 µM [rising, full curve, poor fit]"
CSc1ccccc1NC(=O)c1cc(-c2cccs2)on1,AC50,[1],"3.16 µM [falling, partial curve]"
O=C1CC(c2ccc(Cl)cc2)c2cc3c(cc2N1)OCCO3 (centres undefined),AC50,[1],"39.8 µM [falling, single point]"
CCCCCn1c(=O)[nH]c2cc(C(=O)N3CCN(c4cccc(OC)c4)CC3)ccc2c1=O,AC50,[1],"3.98 µM [falling, full curve]"
COc1ccc(-c2nc3c(c(SCC(=O)Nc4ccccc4OC)n2)Cc2cccc(C)c2O3)cc1,AC50,[1],"15.8 µM [falling, partial curve]"
CCCCC(=O)Nc1c(C(=O)N2CCN(c3ccccc3)CC2)oc2ccccc12,AC50,[1],"20 µM [falling, partial curve]"
CSc1nnc(-c2ccccc2)c(=O)[nH]1,AC50,[1],"31.6 µM [falling, single point]"
COc1ccc(Cc2nn3c(-c4ccccc4OC)nnc3s2)cc1,AC50,[1],"12.6 µM [falling, partial curve]"
Cc1ccc2nc(-c3ccc4c(c3)OCCO4)cc(C(=O)O)c2c1,AC50,[1],"15.8 µM [falling, partial curve]"
COc1cccc(C(=O)Nc2cccc(C(=O)OCc3cc(=O)n4c5c(sc4n3)CCCC5)c2)c1,AC50,[1],"3.98 µM [falling, partial curve]"
CCc1nn(CCCC(=O)NCc2cc(Br)ccc2OC)c(=O)c2cc3occc3n12,AC50,[1],"25.1 µM [falling, single point]"
Cc1ccc(Cn2c(SCC(C)C)nc3c2c(=O)n(C)c(=O)n3C)cc1,AC50,[1],"25.1 µM [falling, partial curve]"
Cc1ccc(-c2nnc(Nc3ccc(O)cc3)c3ccccc23)cc1S(=O)(=O)N1CCCCC1,AC50,[1],"1 µM [falling, full curve]"
CC(C)(C)C(=O)Nc1ccc2nc(SCC(=O)N3CCc4ccccc43)sc2c1,AC50,[1],"10 µM [falling, partial curve]"
O=C(CSc1nnnn1C1CCCCC1)Nc1nc2c(s1)CCCC2,AC50,[1],"25.1 µM [falling, single point]"
CS(=O)(=O)Cc1nc2ccccc2oc1=O,AC50,[1],"12.6 µM [falling, partial curve]"
Cc1ccc(CN2C(=O)N(c3ccccc3)C(=O)C2CC(=O)Nc2ccccc2)cc1 (centres undefined),AC50,[1],"39.8 µM [falling, single point]"
COc1ccc(CC(=O)Nc2nc3ccccc3s2)cc1S(=O)(=O)N1CCOCC1,AC50,[1],"15.8 µM [falling, partial curve]"
CCCOc1ccc(C(=O)CCN2CCCCC2)cc1,AC50,[1],"12.6 µM [falling, partial curve]"
CCn1c(C(=O)N2CCC(C(=O)N3CCN(c4ccccn4)CC3)CC2)cc2sccc21,AC50,[1],"15.8 µM [falling, partial curve]"
CCc1cccc(C)c1NC(=O)Cn1cc2c(n1)CCCCC2,AC50,[1],"15.8 µM [falling, partial curve]"
Cc1nn(Cc2ccccc2)c2c1C(c1ccco1)C(C#N)=C(N)O2 (centres undefined),AC50,measured here: IkB-luc green channel,"31.6 µM [rising, single point]"
same,AC50,measured here: control luc red channel,"25.1 µM [rising, single point]"
COC(=O)c1ccccc1NC(=O)c1cnc2sc(N3CCOCC3)nn2c1=O,AC50,[1],"15.8 µM [falling, partial curve]"
Cc1cccc(NC(=O)COc2nsnc2N2CCOCC2)c1,AC50,[1],"0.501 µM [falling, full curve, poor fit]"
CCN1C(=O)c2ccccc2S(=O)c2ccc(C(=O)N3CCN(c4ccccc4OC)CC3)cc21 (centres undefined),AC50,[1],"25.1 µM [falling, single point]"
COc1cccc(CNC(=O)CCCCCn2c(=O)[nH]c3cc(OC)c(OC)cc3c2=O)c1,AC50,[1],"15.8 µM [falling, single point]"
CN(Cc1ccccc1)C(=O)c1cc(-c2cccc(Cl)c2)on1,AC50,[1],"31.6 µM [falling, single point]"
CS(=O)(=O)N(CCc1ccccc1)CC(=O)N1CCN(Cc2ccc3c(c2)OCO3)CC1,AC50,[1],"12.6 µM [falling, partial curve]"
COc1cc(C(CC(=O)Nc2cc(C)ccn2)N2Cc3ccccc3C2=O)cc(OC)c1OC (centres undefined),AC50,[1],"0.0398 µM [rising, full curve]"
COc1ccc2c(c1)c1c(c(=O)n(-c3cccc(C)c3)c(=O)n1CC(=O)NCC1CCCO1)n2C (centres undefined),AC50,[1],"0.1 µM [rising, full curve]"
Cc1cccc(Cc2c(C)nc3nc(SCc4ccccc4F)nn3c2C)c1,AC50,[1],"12.6 µM [falling, partial curve]"
CCOc1ccccc1C(=O)Nc1ccc(S(=O)(=O)Nc2ncccn2)cc1,AC50,[1],"12.6 µM [rising, partial curve, poor fit]"
COc1ccc(-c2noc(CCC(=O)Nc3cc(OC)ccc3OC)n2)cc1,AC50,[1],"15.8 µM [falling, partial curve]"
CCCCn1c(N2CCC(Cc3ccccc3)CC2)nc2c1c(=O)[nH]c(=O)n2C,AC50,[1],"20 µM [falling, partial curve]"
O=c1/c(=C/c2ccccn2)sc2nc3ccccc3n12,AC50,[1],"0.0316 µM [falling, full curve, poor fit]"
CCCc1nc(SCC(=O)N2CCC(Cc3ccccc3)CC2)c2c(=O)n(C)c(=O)n(C)c2n1,AC50,[1],"2.51 µM [falling, full curve]"
CC(C)c1cc(-c2nc(-c3ccc(Br)cc3)no2)n[nH]1,AC50,[1],"25.1 µM [falling, single point]"
COc1ccc2[nH]c(=O)c(CN(C(=O)c3cccc(Cl)c3)c3cccc(C)c3)cc2c1,AC50,[1],"10 µM [falling, partial curve, poor fit]"
CCc1ccc(NC(=O)Cn2cnc3nc4c(cc3c2=O)CCCC4)cc1,AC50,[1],"1 µM [falling, full curve, poor fit]"
CCOC(=O)c1cc2c(=O)n3ccccc3nc2n(CC(C)C)c1=NC(=O)C(C)(C)Oc1ccc(Cl)cc1,AC50,[1],"0.0794 µM [falling, single point]"
Cc1ccc(C(=O)N2CC(=O)Nc3ccc(Br)cc3C2c2ccc(F)cc2)cc1C (centres undefined),AC50,[1],"15.8 µM [falling, partial curve]"
CC1CN(C(c2cccs2)c2sc3ncnn3c2O)CC(C)O1 (centres undefined),AC50,[1],"12.6 µM [rising, partial curve]"
CC(C)CCNC(=O)c1c[nH]c2ccc(S(=O)(=O)Nc3cccc(C(F)(F)F)c3)cc2c1=O,AC50,[1],"12.6 µM [falling, partial curve]"
CCOc1ccc2cc(C#N)c(SCC(=O)N3CCC(C)CC3)nc2c1,AC50,[1],"25.1 µM [falling, partial curve]"
COc1ccc(C(CNC(=O)c2oc3ccccc3c2C)N2CCCCC2)cc1 (centres undefined),AC50,[1],"39.8 µM [falling, single point]"
CN1CCN(c2ncnc3ccc(-c4cccc(NS(C)(=O)=O)c4)cc23)CC1,AC50,[1],"2.51 µM [rising, partial curve]"
CCc1c(C)sc2c1CCN(C(=O)Nc1ccccc1Cl)C2c1ccc(OC)cc1 (centres undefined),AC50,[1],"7.94 µM [falling, full curve, poor fit]"
Cc1cc(-n2c(SCc3ccccc3F)nc3[nH]ncc3c2=O)ccc1Cl,AC50,[1],"39.8 µM [falling, single point]"
COc1ccc(-c2csc(NC(C)=O)n2)cc1OC,AC50,[1],"6.31 µM [rising, single point] [measured here: IkB-luc green channel]"
CS(=O)(=O)c1ncc(N(Cc2ccco2)Cc2cccs2)c(C(=O)Nc2ccccc2F)n1,AC50,[1],"3.16 µM [falling, partial curve]"
CC1CCc2onc(C(=O)N3CCN(c4ccc(Cl)cc4)CC3)c2C1 (centres undefined),AC50,[1],"7.94 µM [falling, partial curve]"
O=C(CCCCCNc1nc(=S)[nH]c2ccccc12)N1CCN(c2ccccn2)CC1,AC50,[1],"31.6 µM [falling, partial curve]"
Cc1ccc(NC(=O)CCc2nc(-c3ccccc3F)no2)c(C)c1,AC50,[1],"0.0794 µM [falling, full curve, poor fit]"
COc1cc(C(=O)Nc2sc3c(c2C#N)CCCC3)c(Br)c(OC)c1OC,AC50,[1],"0.398 µM [rising, full curve]"
Cc1cccc(OCC(=O)Nc2nnc(S(=O)(=O)N3CCCCCC3)s2)c1,AC50,[1],"3.16 µM [rising, partial curve]"
CS(=O)(=O)c1ncc(Cl)c(C(=O)N(Cc2ccc(Cl)cc2)Cc2ccco2)n1,AC50,[1],"3.16 µM [falling, full curve]"
COc1cc(Cl)c(C)cc1NC(=O)c1c(C)oc2nc(C)nc(N3CCCC3)c12,AC50,[1],"39.8 µM [falling, single point]"
CCc1nnc(NC(=O)CSc2nccn2Cc2ccccc2)s1,AC50,[1],"39.8 µM [falling, partial curve, poor fit]"
O=C1CCCc2cc(S(=O)(=O)N3CCCC(C(=O)NCc4ccccc4Cl)C3)ccc2N1 (centres undefined),AC50,[1],"3.98 µM [falling, full curve, poor fit]"

# A run of entries of the results above:
compound,measurement,setting,value
O=c1/c(=C/c2ccccn2)sc2nc3ccccc3n12,AC50,[1],"0.0316 µM [falling, full curve, poor fit]"
CCCc1nc(SCC(=O)N2CCC(Cc3ccccc3)CC2)c2c(=O)n(C)c(=O)n(C)c2n1,AC50,[1],"2.51 µM [falling, full curve]"

# Source: PubChem BioAssay AID445 (National Center for Advancing Translational Sciences (NCATS), 2006)
